Data: PubChem BioAssay AID2551 (National Center for Advancing Translational Sciences (NCATS), 2010)
Hit rate of the full screen: of about 310,000 compounds, about 17,000 (5.5%) were called active. Inconclusive means that the source gave no clear call. Such entries were picked first, then a sample of the others. Calls come from the whole dose curve; as a rule, active = well fitted inhibition curve with a large enough effect; inconclusive = small, poorly fitted or top-dose-only effect, or effect the other way; inactive = no such curve, though single readings can be large or run the other way. A potency beside an inconclusive call is a rough fit, not a confirmed value.

The chains behind the UniProt entries cited, without tags or fusion partners. Where a name states a change or a piece, a line headed by the entry shows the natural chain unless it says otherwise.
UniProt P51450: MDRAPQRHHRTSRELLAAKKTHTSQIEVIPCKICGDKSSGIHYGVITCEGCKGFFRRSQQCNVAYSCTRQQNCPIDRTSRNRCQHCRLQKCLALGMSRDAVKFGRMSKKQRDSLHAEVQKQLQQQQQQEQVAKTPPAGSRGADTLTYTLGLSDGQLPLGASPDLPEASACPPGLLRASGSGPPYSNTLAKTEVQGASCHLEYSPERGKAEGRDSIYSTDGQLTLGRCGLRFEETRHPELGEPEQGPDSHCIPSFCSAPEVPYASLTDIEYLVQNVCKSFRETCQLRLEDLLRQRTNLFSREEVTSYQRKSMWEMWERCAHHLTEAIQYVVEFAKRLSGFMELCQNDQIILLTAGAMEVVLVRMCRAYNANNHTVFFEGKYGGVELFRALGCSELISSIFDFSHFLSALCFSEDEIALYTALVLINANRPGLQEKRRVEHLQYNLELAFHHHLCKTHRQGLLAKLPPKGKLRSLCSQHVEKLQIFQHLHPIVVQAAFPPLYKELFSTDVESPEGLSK

Each compound was assayed against Nuclear receptor ROR-gamma (Mus musculus) (UniProt P51450) (assay: qHTS for inhibitors of ROR gamma transcriptional activity). Conditions: Drosophila S2 Gal4-RORgamma UAS-luciferase reporter, 20 h; series mostly up to 53.6 µM.
Outline: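 In this cell-based reporter format, copper sulfate (700 uM final) drives Gal4–ROR gamma fusion expression from a metallothionein promoter in Drosophila Schneider cells; compounds preincubated 1 hr, reporter read after 20 hr at ambient temperature.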
Note: nearly all actives have a fitted effect of over 60% in size.
Potency is the fitted concentration of half-maximal effect.

SMILES | Potency
CC1(C)O[C@@H]2C[C@H]3[C@@H]4CCC5=CC(=O)C=C[C@]5(C)[C@@]4(F)[C@@H](O)C[C@]3(C)[C@]2(C(=O)CO)O1 | inconclusive: 12.6 µM [activator, partial curve]
COc1ccc(C)cc1NS(=O)(=O)c1ccc2c(c1)CCN2C(C)=O | inconclusive: 15.8 µM [activator, single point]
O=c1c(C(c2ccc(O)cc2)c2c(O)nc3n(c2=O)CCCS3)c(O)nc2n1CCCS2 | inactive
CC(C)(C)OC1NS(=O)(=O)OCC1NCOC(Cl)(Cl)Cl (stereo not given) | active: 10 µM
COc1ccc(NC(=O)c2cc(-c3ccccn3)nc3c(C)cc(C)cc23)c(C)c1 | inconclusive: 35.5 µM [inhibitor, single point]
Cc1ccc(O)c(NC(=O)/C=C/C(=O)O)c1 | inconclusive: 15.8 µM [inhibitor, single point]
O=C(O)CCCCCN1C(=O)/C(=C\c2cn(-c3ccccc3)nc2-c2cccs2)SC1=S | inconclusive: 0.631 µM [activator, full curve]
O=C(N/N=C/c1ccc([N+](=O)[O-])o1)c1cc(-c2cccc(Br)c2)nc2ccccc12 | active: 3.16 µM
O=C(NC1CCOC1)c1cc(COc2cccc(C(F)(F)F)c2)on1 (stereo not given) | inconclusive: 7.08 µM [activator, partial curve]
COc1ccc(CC(=O)Nc2cccc(-c3nnc(-c4ccc(C)cc4)o3)c2)cc1OC | inconclusive: 2.51 µM [activator, full curve]
Cc1nn(C)cc1CN1CCCC(C(=O)c2ccc(-c3ccccc3)cc2)C1 (stereo not given) | inactive
Cc1cccc(-c2c3c(=O)n(C)c(=O)n(C)c3cn2C(C)C)c1 | inactive
Cc1nc(-c2ccc(-n3nncc3-c3ccco3)cc2)cs1 | inconclusive: 14.1 µM [activator, single point]
COc1cccc(F)c1C(C[N+](=O)[O-])c1c(N)n(C)c(=O)n(C)c1=O (stereo not given) | active: 7.08 µM
CCN1CCCc2cc(CN(CCN3CCOCC3)C(=S)Nc3cccc(OC)c3)ccc21 | active: 7.08 µM
Cc1ccc(Oc2cc(C)nc(-c3ccccc3O)n2)cc1 | inconclusive: 8.91 µM [activator, partial curve]
COc1ccc(S(=O)(=O)NN(C)c2ncc(C(F)(F)F)cc2Cl)cc1 | active: 3.98 µM
CCC(C)c1ccc(NC(=O)Nc2cccnc2)cc1 (stereo not given) | inconclusive: 3.16 µM [activator, partial curve]
CCOC(=O)c1ccc(NC(=O)C2C3CCCCC32)cc1 (stereo not given) | inconclusive: 10 µM [activator, partial curve]
O=C(NC(=S)Nc1ccc(CN2CCOCC2)cc1)c1cccc([N+](=O)[O-])c1 | inconclusive: 0.891 µM [inhibitor, single point]
Cc1ccc(C)c(NC(=O)CSc2ncnc3nc[nH]c23)c1 | inconclusive: 12.6 µM [activator, single point]
C/C(=N\Nc1nncc2ccccc12)c1cccc(OC(F)F)c1 | inconclusive: 17.8 µM [inhibitor, single point]
COc1ccc(NC(=O)c2ccco2)c([N+](=O)[O-])c1 | inconclusive: 3.55 µM [activator, full curve]
CCCOc1ccccc1Cn1c(=O)oc2ccccc21 | inactive
Cc1c(N=C/C=C/c2ccccc2)cnn1C | inconclusive: 31.6 µM [inhibitor, single point]

A second format for four compounds above.
O=C(O)CCCCCN1C(=O)/C(=C\c2cn(-c3ccccc3)nc2-c2cccs2)SC1=S
  Potency: inconclusive: 0.631 µM [activator, full curve]
O=C(N/N=C/c1ccc([N+](=O)[O-])o1)c1cc(-c2cccc(Br)c2)nc2ccccc12
  Potency: active: 3.16 µM
O=C(NC1CCOC1)c1cc(COc2cccc(C(F)(F)F)c2)on1 (stereo not given)
  Potency: inconclusive: 7.08 µM [activator, partial curve]
COc1ccc(CC(=O)Nc2cccc(-c3nnc(-c4ccc(C)cc4)o3)c2)cc1OC
  Potency: inconclusive: 2.51 µM [activator, full curve]

The listing continues.

SMILES | Potency
CCOc1cc(C2/C(=C(\O)c3cc(C)ccc3C)C(=O)C(=O)N2CCN(C)C)ccc1O (stereo not given) | inactive
CCn1c(C)cs/c1=N\C(=S)Nc1ccccc1C | active: 2.24 µM
O=C(NCc1cccnc1)c1ccc(NC(=O)c2ccc([N+](=O)[O-])cc2)cc1 | inactive
Cc1ccc(NC(=O)c2ccc3c(c2)CCN3S(C)(=O)=O)cc1C | inconclusive: 4.47 µM [activator, partial curve]
O=[N+]([O-])c1ccc(Cl)c(CN2CCCCCC2)c1 | inconclusive: 3.16 µM [inhibitor, single point]
O=C(N/N=C/c1cccs1)c1cccnc1 | inconclusive: 17.8 µM [inhibitor, single point]
Cc1ccc(CNC(=O)c2ccc3c(=O)c(O)c(-c4ccc(C)cc4)[nH]c3c2)cc1 | inactive
Cc1ccc(S(=O)(=O)NCC(=O)N2CCC(C)CC2)cc1 | inconclusive: 10 µM [activator, single point]
Cc1c(Cl)c([N+](=O)[O-])nn1CCCC(=O)Nc1cccc(Cl)c1 | inconclusive: 35.5 µM [inhibitor, single point]
COc1cc(O)cc(O)c1C(=O)/C=C/c1ccccc1 | inconclusive: 8.91 µM [inhibitor, partial curve]
Oc1ccccc1-c1csc(-c2ccccc2)n1 | inconclusive: 3.98 µM [inhibitor, single point]
COc1ccc(OC)c(Nc2nc3ccc(C)cc3n3cnnc23)c1 | inactive
O=C(Nc1ccccc1F)c1cnccn1 | inactive
CC(=O)c1cn(CCOc2ccc(F)cc2)c2ccccc12 | inconclusive: 5.01 µM [activator, partial curve]
CCOC(=O)/C(C#N)=C\c1ccc(N2CCN(C/C=C/c3ccccc3)CC2)cc1 | inconclusive: 22.4 µM [activator, single point]
O=C(c1csc2ccccc12)N1CCCCCC1 | inconclusive: 17.8 µM [activator, single point]
CC1CC(C)CN(C(=S)Nc2ccc3nc4n(c(=O)c3c2)CCCCC4)C1 (stereo not given) | inconclusive: 0.0056 µM [activator, full curve, poor fit]
COc1cc(C=O)ccc1OCCCOc1ccccc1[N+](=O)[O-] | inactive
CCOC(=O)c1cnc(-n2nc(C)cc2C)nc1NCc1ccccc1 | active: 1.41 µM
O=c1c2c(nc3nc[nH]n13)CCC2 | inactive
O=C(O)c1ccc(COc2ccc3ccccc3c2/C=C2/NC(=O)N(c3ccccc3)C2=O)cc1 | inconclusive: 35.5 µM [inhibitor, single point]
COc1ccc(NC(=S)N2CCC(C(=O)N3CCCCCC3)CC2)cc1 | inactive
Cc1c(C(=O)Nc2ccc(S(=O)(=O)NCC3CCCO3)cc2)cccc1[N+](=O)[O-] (stereo not given) | inconclusive: 14.1 µM [activator, single point]
CCOc1cc(/C=N/NC(=S)Nc2ccccc2C(F)(F)F)ccc1OCC(=O)N1CCOCC1 | active: 1.41 µM
O=C(CN1C(=O)c2ccccc2S1(=O)=O)c1ccc(OC(F)F)cc1 | active: 12.6 µM

SMILES | Potency
Cc1ccc(-n2ncc3c(NNC(=O)c4cccs4)ncnc32)cc1 | active: 1.26 µM
O=C(Nc1nc2ccsc2c(=O)s1)c1ccco1 | inconclusive: 4.47 µM [activator, partial curve]
O=C(CN1C(=O)c2cccc3cccc1c23)N1CCN(Cc2ccc3c(c2)OCO3)CC1 | inconclusive: 6.31 µM [activator, single point]
COc1ccccc1N(CC(=O)Nc1cccc(C(F)(F)F)c1)S(C)(=O)=O | inactive
C=CCNC(=S)N1CCC(Cc2ccccc2)CC1 | inconclusive: 15.8 µM [inhibitor, single point]
CC1CCc2nc(NC(=O)CSc3nc4ccccc4o3)sc2C1 (stereo not given) | inconclusive: 35.5 µM [inhibitor, single point]
Cc1ccc(Cn2c(N)nc3ccccc32)cc1 | inconclusive: 12.6 µM [activator, partial curve]
C=CCNC(=O)/C(C#N)=C/c1ccc2c(c1)OCCO2 | inconclusive: 11.2 µM [activator, single point]
CC(=O)Nc1ccc(NC2=C/C(=N/S(=O)(=O)c3cccs3)c3ccccc3C2=O)cc1 | active: 7.08 µM
c1ccc(CN2CCC3(CCc4ccccc43)CC2)cc1 | inactive
CCn1c(=S)[nH]c2cc(S(=O)(=O)N3CCCCC3)ccc21 | active: 10 µM
C/C(Cl)=C\COc1cc(C)nc2c(Br)cccc12 | inactive
Cc1nn2c(-c3ccccc3)ccnc2c1Br | inactive
N#C/C(=C/c1ccccc1)C(=O)NCc1ccccc1 | inconclusive: 35.5 µM [inhibitor, single point]
CC(=O)OCC1OC(Sc2cccc3cccnc23)C(OC(C)=O)C(OC(C)=O)C1OC(C)=O (stereo not given) | inconclusive: 11.2 µM [inhibitor, single point]
Cc1cc(C)c2[nH]c(=O)c(CN(Cc3cccs3)C(=S)NCc3ccco3)cc2c1 | inactive
CCN(CCCNc1ncnc2nc[nH]c12)c1cccc(C)c1 | inconclusive: 11.2 µM [activator, partial curve]
Cc1sc(NC(=O)C2CCCO2)c(C(N)=O)c1C (stereo not given) | inconclusive: 5.62 µM [activator, single point]
Cc1ccc(C(=O)c2ccccc2C(=O)OCC(=O)NC(=O)NC(C)(C)C)cc1 | inactive
O=C(CCc1ccccc1)N1CCN(c2ccc([N+](=O)[O-])cc2)CC1 | inactive
CCC(=O)NC(=S)Nc1ccccc1F | active: 12.6 µM
COC(=O)CC1(C(=O)OC)Oc2ccc(Br)cc2C(=O)N1c1ccc(Br)cc1Cl (stereo not given) | inconclusive: 35.5 µM [inhibitor, single point]
O=C(Nc1ccc(N2CCOCC2)c(Cl)c1)c1ccco1 | inconclusive: 0.501 µM [activator, full curve, poor fit]
CCCN1CNC(=S)N(c2cc(C)ccc2C)C1 | active: 12.6 µM
CN(C)CCCN(C(=O)c1ccc2c(c1)CCCC2)c1nc2ccc(F)cc2s1 | inconclusive: 35.5 µM [inhibitor, partial curve, poor fit]
